Test results: the supplement of paper PMC10735217
Structures can show the parent of a compound that is named as a salt. This is one part of the list. Single values are uncertain here, since repeats match poorly.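 Human kidney-derived cells stably carry a construct in which eight TEAD-binding elements drive luciferase, measured by luminescence in a drug-repurposing library screen. A hit is any compound whose signal exceeds the plate mean by more than five robust Z scores.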

Test system: HEK293A TEAD-LUC reporter
Test: TEAD-luciferase reporter activity (YAP activation), robust Z score vs plate; higher = stronger YAP/TEAD activation
Details: 24 h

| Structure (SMILES) | TEAD-luciferase reporter activity (compound concentration: 200 nM) | TEAD-luciferase reporter activity (compound concentration: 2 uM) | TEAD-luciferase reporter activity (compound concentration: 10 uM) |
| --- | --- | --- | --- |
| CC(=O)/C(=N/O)c1cc[n+](C)cc1 | inactive: -1.06 | inactive: 0.546 | inactive: 1.08 |
| Cc1ccc(C(C)C)cc1O [Carvacrol] | inactive: -2.16 | inactive: 0.12 | inactive: -0.327 |
| CCNC/C=C\CNCCCCNCCCCNC/C=C\CNCC | inactive: 0.193 |  | inactive: -0.178 |
| O=C1NCCCCC1N(Cc1ccc(Br)cc1)S(=O)(=O)c1ccc(Cl)cc1 (stereo not drawn) | inactive: 1.38 | inactive: 2.17 | inactive: 1.01 |
| C[C@@H](c1ccc(-c2ccccc2)c(F)c1)c1cc(/N=C(\N)N2CCOCC2)on1 [Rimacalib hydrochloride] | inactive: -1.08 | inactive: 0.393 | inactive: 1.03 |
| Cn1cnc2nc(O)nc(O)c21 | inactive: -2.21 | inactive: -1.96 | inactive: -1.58 |
| CC(C)=CCOc1cc(NC(=O)c2ccsc2C)ccc1Cl | inactive: -1.82 | inactive: -0.395 | inactive: -0.846 |
| COc1cc(N)c(Cl)cc1C(=O)NC1CCN(CCCOc2ccc(F)cc2)CC1OC (stereo not drawn) [cisapride] | inactive: -0.166 | inactive: -0.702 | inactive: 0.311 |
| COc1ccncc1CN1CCC(N(CCCCCCCN2CC[C@@H](C(C(N)=O)(c3ccccc3)c3ccccc3)C2)C(C)C)CC1 | inactive: -0.527 | inactive: 1.59 | inactive: -0.647 |
| COc1cc2nccc(Oc3ccc(NC(=O)Nc4cc(C)on4)c(Cl)c3)c2cc1OC [tivozanib (ophthalmic), Ophthotech] | inactive: 2.44 |  | inactive: 0.958 |
| COc1cc2nccc(Oc3ccc(NC(=O)Nc4cc(C)on4)c(Cl)c3)c2cc1OC [tivozanib (ophthalmic)] |  | inactive: -2.1 |  |
| O=c1c2nc[nH]c2c2cccnc2n1-c1ccccc1 | inactive: 1.31 | inactive: -0.254 | inactive: 0.974 |
| CCCCS(=O)(=O)N[C@@H](Cc1ccc(OCCCCC2CCNCC2)cc1)C(=O)O [tirofiban hydrochloride] | inactive: -1.8 | inactive: 1.16 | inactive: 0.687 |
| Nc1c(NCCCOc2cccc(CN3CCCCC3)c2)c(=O)c1=O | inactive: -1.31 | inactive: 0.589 | inactive: -1.44 |
| CN1C(=O)N(c2cc(Cl)cc(Cl)c2)C(=O)[C@@]1(C)Cc1ccc(Br)cc1 | inactive: -0.709 | inactive: 2.16 | inactive: 0.308 |
| CC(C)C[C@H](NC(=O)CNC(=O)c1cc(Cl)ccc1Cl)B1OC(=O)CC(CC(=O)O)(C(=O)O)O1 (stereo partly drawn) | active: 6.07 |  | inactive: -0.118 |
| CC(C)C[C@H](NC(=O)CNC(=O)c1cc(Cl)ccc1Cl)B1OC(=O)CC(CC(=O)O)(C(=O)O)O1 (stereo partly drawn) [Ixazomib citrate] |  | inactive: -0.886 |  |
| CC(C)CCN(C)Cc1ccc(-c2ccccc2)cc1 | inactive: 1.71 |  | inactive: 0.767 |
| O=C(c1ccc(F)c(F)c1Nc1ccc(I)cc1F)N1CC(O)([C@H]2CCCCN2)C1 [Cobimetinib] | inactive: 0.146 | inactive: -0.811 | inactive: 0.74 |
| Cc1c(CN2CCOC(c3ccccc3)C2C)c(=O)n(-c2ccccc2)n1C (stereo not drawn) | inactive: -1.21 | inactive: 0.124 | inactive: 0.747 |

| Structure (SMILES) | TEAD-luciferase reporter activity (compound concentration: 200 nM) | TEAD-luciferase reporter activity (compound concentration: 2 uM) | TEAD-luciferase reporter activity (compound concentration: 10 uM) |
| --- | --- | --- | --- |
| CCOC(=O)c1c[nH]cn1 | inactive: 0.549 | inactive: -0.94 | inactive: -0.133 |
| CC(=O)N[C@@H](CSC(=O)c1ccccc1O)C(=O)O [Salnacedin] | inactive: -0.901 | inactive: 0.0198 | inactive: 0.0173 |
| C[N+](C)(C)NCCC(=O)[O-] [Mildronate] | inactive: -0.792 |  | inactive: -1.14 |
| CC1(C)O[C@H]2O[C@H]([C@H](O)CO)[C@H](O)[C@H]2O1 | inactive: 0.00741 | inactive: 0.308 | inactive: -0.687 |
| Cc1onc(-c2ccccc2Cl)c1C(=O)N[C@@H]1C(=O)N2[C@@H]1SC(C)(C)[C@@H]2C(=O)[O-] | inactive: 1.28 | inactive: -0.521 | inactive: -0.326 |
| CCCNCC(O)COc1ccc(SC)cc1 (stereo not drawn) | inactive: -1.56 | inactive: -0.192 | inactive: 2.89 |
| O=C1CCCCCCCCCCCCCCO1 [Conrex Permeation Enhancer-215] | inactive: 1.15 | inactive: -0.159 | inactive: 0.0978 |
| COc1cc(NS(=O)(=O)c2ccc(N)cc2)nc(OC)n1 | inactive: -0.833 | inactive: -0.202 | inactive: 1.12 |
| O=C(/C=C/c1ccc(CN(CCO)CCc2c[nH]c3ccccc23)cc1)NO |  | active: 26.2 |  |
| O=C(/C=C/c1ccc(CN(CCO)CCc2c[nH]c3ccccc23)cc1)NO [LAQ824 (NVP-LAQ824, Dacinostat)] | active: 31 |  | active: 41.5 |
| CC(=O)Oc1ccccc1C(=O)OC1OC(=O)c2ccccc21 (stereo not drawn) [talosalate] | inactive: 1.54 | inactive: -2.04 | inactive: 1.13 |
| CCCOCCn1c(=O)c(N2CCN(CCO)CC2)nc2cnc(-c3ccc(OC)nc3)cc21 | inactive: 0.938 | inactive: 0.0622 | inactive: -0.533 |
| CSCC[C@H](NC(=O)[C@H](Cc1c[nH]c2ccccc12)NC(=O)CCNC(=O)OC(C)(C)C)C(=O)N[C@@H](CC(=O)O)C(=O)N[C@@H](Cc1ccccc1)C(N)=O [Pentagastrin] | inactive: 0.882 | inactive: -0.352 | inactive: -1.74 |
| O=C1NCCN1C1CCN(CC[C@@H]2COc3ccccc3O2)CC1 | inactive: -0.304 | inactive: 3.27 | inactive: 0.00606 |
| CC(=O)NC1CCN(c2nc3ncccc3o2)C1 (stereo not drawn) | inactive: -0.96 |  | inactive: -0.867 |
| O=C1NCc2ccccc2CC12CCCN2Cc1cccc(O)c1 (stereo not drawn) | inactive: -1.89 |  | inactive: -1.8 |
| O=C(Nc1ccc2nc(O)oc2c1)C(=O)N1CCC(Cc2ccc(F)cc2)CC1 [radiprodil] | inactive: -2.49 | inactive: -1.85 | inactive: 3.84 |
| O=C(Cc1ccccn1)NC1CCN(c2nc3ncccc3o2)CC1 | inactive: -1.1 |  | inactive: 0.907 |
| COC(=O)N[C@H](C(=O)N1CCC[C@H]1c1ncc(C#CC#Cc2ccc(-c3cnc([C@@H]4CCCN4C(=O)[C@@H](NC(=O)OC)C(C)C)[nH]3)cc2)[nH]1)C(C)C | inactive: -1.39 | inactive: -1.1 | inactive: -1.61 |
| CN1CCN(C/C(=N\O)c2ccc(CCc3ccccc3)cc2)CC1 | inactive: -1.79 | inactive: -1.05 | inactive: 1.18 |

| Structure (SMILES) | TEAD-luciferase reporter activity (compound concentration: 200 nM) | TEAD-luciferase reporter activity (compound concentration: 2 uM) | TEAD-luciferase reporter activity (compound concentration: 10 uM) |
| --- | --- | --- | --- |
| CC[N+](C)(C)C(C)CC(c1ccccc1)c1ccccc1 (stereo not drawn) | inactive: -0.629 | inactive: 3.11 | inactive: 1.32 |
| CCS(=O)(=O)c1ccc(/C=N/NC(N)=S)cc1 | inactive: 0.615 | inactive: -0.446 | inactive: 0.0863 |
| NCCc1cc[nH]n1 | inactive: 0.626 | inactive: -0.596 | inactive: 1.96 |
| CCC1(c2ccccc2)NC(=O)N(C)C1=O (stereo not drawn) | inactive: -0.415 | inactive: 0.705 | inactive: -0.494 |
| Cc1ccccc1-c1cc(N2CCOCC2)ncc1N(C)C(=O)C(C)(C)c1cc(C(F)(F)F)cc(C(F)(F)F)c1 | inactive: -0.0959 | inactive: 0.154 | inactive: -0.329 |
| CC(C(=O)O)c1ccc(C2CCCCC2)c2ccccc12 (stereo not drawn) | inactive: 0.792 | inactive: -0.496 | inactive: 0.206 |
| CCN1CCc2nc(N)oc2CC1 [azepexole] | inactive: -0.663 | inactive: -1.31 | inactive: -1.13 |
| CC1(C)S[C@@H]2[C@H](NC(=O)COc3ccccc3)C(=O)N2[C@H]1C(=O)O [Phenoxymethylpenicillin] | inactive: -0.8 | inactive: 2.55 | inactive: 0.0112 |
| CN(C)c1cccc(-c2c3c(=O)n(-c4ccccc4Cl)[nH]c3cc(=O)n2C)c1 | inactive: -0.63 | inactive: -1.85 | inactive: -0.474 |
| O=C(c1ccccc1F)N1CCC(N2Cc3ccccc3C2=O)CC1 | inactive: -1.3 |  | inactive: -0.72 |
| N#C/N=C(\NCCc1ccccc1Cl)c1cncc(N)c1 | inactive: -0.922 | inactive: 0.341 | inactive: 1.72 |
| CC[C@]12CCCN3CCc4c(n(c5ccccc45)[C@@](O)(C(=O)OC)C1)[C@@H]32 | inactive: 1.5 | inactive: 1.79 | active: 5.98 |
| C[C@H]1C[C@H]2[C@@H]3CCC4=CC(=O)C=C[C@]4(C)[C@@]3(F)[C@@H](O)C[C@]2(C)[C@@]1(O)C(=O)CO [betamethasone] |  | inactive: 2.83 |  |
| C[C@H]1C[C@H]2[C@@H]3CCC4=CC(=O)C=C[C@]4(C)[C@@]3(F)[C@@H](O)C[C@]2(C)[C@@]1(O)C(=O)CO [Betamethasone (Celestone)] | inactive: -1.49 |  | inactive: 3.31 |
| C[C@H]1C[C@H]2[C@@H]3CCC4=CC(=O)C=C[C@]4(C)[C@@]3(F)[C@@H](O)C[C@]2(C)[C@@]1(O)C(=O)CO |  | inactive: 1.66 |  |
| CCCCCCOc1cccc2cc(-c3nnn[nH]3)c(=O)oc12 | inactive: -1.34 | inactive: 0.0946 | inactive: 2.1 |
| c1ccc2ccccc2c1 | inactive: 0.522 | inactive: -0.969 | inactive: -1.55 |
| O=C1Nc2ccc(F)c(F)c2[C@](C#CC2CC2)(C(F)(F)F)N1 | inactive: -1.2 | inactive: 1.34 | inactive: 0.293 |

Complete entries, quoted from the list.
Cc1ccccc1-c1cc(N2CCOCC2)ncc1N(C)C(=O)C(C)(C)c1cc(C(F)(F)F)cc(C(F)(F)F)c1 in the list: TEAD-luciferase reporter activity (compound concentration: 200 nM): inactive: -0.0959; TEAD-luciferase reporter activity (compound concentration: 2 uM): inactive: 0.154; TEAD-luciferase reporter activity (compound concentration: 10 uM): inactive: -0.329
CC[C@]12CCCN3CCc4c(n(c5ccccc45)[C@@](O)(C(=O)OC)C1)[C@@H]32 in the list: TEAD-luciferase reporter activity (compound concentration: 200 nM): inactive: 1.5; TEAD-luciferase reporter activity (compound concentration: 2 uM): inactive: 1.79; TEAD-luciferase reporter activity (compound concentration: 10 uM): active: 5.98
CC1(C)S[C@@H]2[C@H](NC(=O)COc3ccccc3)C(=O)N2[C@H]1C(=O)O [Phenoxymethylpenicillin] in the list: TEAD-luciferase reporter activity (compound concentration: 200 nM): inactive: -0.8; TEAD-luciferase reporter activity (compound concentration: 2 uM): inactive: 2.55; TEAD-luciferase reporter activity (compound concentration: 10 uM): inactive: 0.0112
